Experiment: Spray tests: release on cotton Terry towel upon irradiation with a tanning lamp, judged by trained panel of perfumers
Set-up: key: O: very weak; +: weak; ++: medium; +++: strong
Settings: 45-75 μg/g cotton, after irradiation with tanning lamp 300 W
Experimental: 1 g of an approximately 0.2% cyclic phenacyl acetal (I) solution in ethanol was evenly sprayed on a Terry towel (white cotton towel, 25cm×25 cm, 45 g), corresponding to 45-75 μg/g cotton. The sprayed towels were allowed to dry in a dark and odorless place. When dry, the towels were irradiated for a few seconds up to a few minutes with a tanning lamp (Osram ULTRA-VITALUX®, 300 W; at a distance of 50 cm, the light has approximately six to seven times the effect of the natural sunlight at noon on a sea-side mid-summer day). The evaluation was done by a trained panel of perfumers before and after irradiation. Before irradiation, the towels were judged to be odorless.
For `CCCCCCCC1CCC(OCC(=O)c2cc3c(cc2C)C(C)(C)C(C)CC3(C)C)O1` (stereo not drawn) [compound 2, 2-(5-Heptyl-tetrahydro-furan-2-yloxy)-1-(3,5,5,6,8,8-hexamethyl-5,6,7,8-tetrahydro-naphtalen-2-yl)-ethanone], the “Fragrance Target (perception) aryl ketone (II)” value (“Fragrance Target … (II)” for short) was “FIXOLIDE ® (++)”, the “Fragrance Target (perception) lactone (III)” value (from here on “Fragrance Target … (III)”) was “PEACH PURE ® (++)” and the Global appreciation was “++”. With `C/C=C/CCC1CCCC(OCC(=O)c2ccc3ccccc3c2)O1` (stereo not drawn) [compound 6, 1-(Naphtalen-2-yl)-2-(6-pent-3-enyl-tetrahydro-pyran-2-yloxy)-ethanone] the “Fragrance Target … (II)” value was “ORANGER CRYSTALS ® (++)”, the “Fragrance Target … (III)” value was “JASMOLACTONE ® (++)” and the Global appreciation was “++”. For `CCCCCCCC1CCC(OCC(=O)c2ccc3ccccc3c2)O1` (stereo not drawn) [compound 3, 2-(5-Heptyl-tetrahydro-furan-2-yloxy)-1-naphtalen-2-yl-ethanone], the “Fragrance Target … (II)” value was “ORANGER CRYSTALS ® (++)”, the “Fragrance Target … (III)” value was “PEACH PURE ® (++)” and the Global appreciation was “++”. For `C/C=C/CCC1CCCC(OCC(=O)c2cc3c(cc2C)C(C)(C)C(C)CC3(C)C)O1` (stereo not drawn) [compound 5, 1-(3,5,5,6,8,8-Hexamethyl-5,6,7,8-tetrahydro-naphthalen-2-yl)-2-(6-pent-3-enyl-tetrahydro-pyran-2-yloxy)-ethanone], the “Fragrance Target … (II)” value was “FIXOLIDE ® (++)”, the “Fragrance Target … (III)” value was “JASMOLACTONE ® (+++)” and the Global appreciation was “+++”. In the case of `CCCCCCCC1CCC(OCC(=O)c2ccc(OC)cc2)O1` (stereo not drawn) [compound 4, 2-(5-Heptyl-tetrahydro-furan-2-yloxy)-1-(4-methoxy-phenyl)-ethanone], the “Fragrance Target … (II)” value is reported as “Acetanisole (++)”, the “Fragrance Target … (III)” value is reported as “PEACH PURE ® (++)” and the Global appreciation is reported as “+++”. For `Cc1cc2c(cc1C(=O)COC1CCC3(CCC(C)CC3)O1)C(C)(C)CC(C)C2(C)C` (stereo not drawn) [compound 1, 1-(3,5,5,6,8,8-Hexamethyl-5,6,7,8-tetrahydro-naphtalen-2-yl)-2-(8-methyl-1-oxa-spiro[4.5]dec-2-yloxy)-ethanone], the “Fragrance Target … (II)” value was “FIXOLIDE ® (++)”, the “Fragrance Target … (III)” value was “METHYL LAITONE ® (+)” and the Global appreciation was “+”.

From patent publication US6939845B2, “Fragrance precursors” (Givaudan SA, priority 2000, dated 2005)
